Reference: publication PMC4460860
These are yes or no findings as the source states them, for the method shown. Binding seen in cells or lysates may run through a third protein. Some binding calls cover weakened binding; strength is not graded here. Tags and fused reporters may be left off the sequences shown.

The chains behind the UniProt entries cited, without tags or fusion partners.
UniProt Q8CIV2: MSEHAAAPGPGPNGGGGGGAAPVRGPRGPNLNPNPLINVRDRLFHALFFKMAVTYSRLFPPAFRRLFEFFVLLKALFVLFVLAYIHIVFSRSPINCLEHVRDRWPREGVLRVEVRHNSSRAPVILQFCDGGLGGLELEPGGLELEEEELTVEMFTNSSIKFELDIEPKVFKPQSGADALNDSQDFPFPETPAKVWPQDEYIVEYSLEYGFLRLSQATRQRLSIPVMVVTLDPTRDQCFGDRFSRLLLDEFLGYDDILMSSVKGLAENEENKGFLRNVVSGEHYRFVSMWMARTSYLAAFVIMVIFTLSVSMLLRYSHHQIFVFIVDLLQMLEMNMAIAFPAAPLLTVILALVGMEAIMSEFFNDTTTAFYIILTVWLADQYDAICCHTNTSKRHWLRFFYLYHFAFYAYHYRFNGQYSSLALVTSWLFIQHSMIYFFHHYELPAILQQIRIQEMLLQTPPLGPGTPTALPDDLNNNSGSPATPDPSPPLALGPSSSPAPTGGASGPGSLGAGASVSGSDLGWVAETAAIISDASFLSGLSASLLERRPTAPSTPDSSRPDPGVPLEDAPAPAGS

Biological target: membralin-myc (mouse) (UniProt Q8CIV2)
Assay: co-IP; membralin-myc and Erlin2-HA co-transfected in HEK 293 cells (legend: HEK 293T); lysates collected 48 hr after transfection; immunoprecipitated with anti-Myc or IgG (negative control), immunoblotted with anti-Erlin2

binding: binds
B1: Erlin2-HA (protein, UniProt Q8BFZ9 1-340)
chain: MAQLGAVVAVASSFFCASLFSAVHKIEEGHIGVYYRGGALLTSTSGPGFHLMLPFITSYKSVQTTLQTDEVKNVPCGTSGGVMIYFDRIEVVNFLVPNAVYDIVKNYTADYDKALIFNKIHHELNQFCSVHTLQEVYIELFDQIDENLKLALQQDLTSMAPGLVIQAVRVTKPNIPEAIRRNYELMESEKTKLLIAAQKQKVVEKEAETERKKALIEAEKVAQVAEITYGQKVMEKETEKKISEIEDAAFLAREKAKADAECYTALKIAEANKLKLTPEYLQLMKYKAIASNSKIYFGKDIPNMFMDSAGGLGKQFEGLSDDKLGFGLEDEPLEAPTKEN
